Reference: publication PMC7862700
This is a selection; strong and weak results do not stand in their true shares. At the low end of the ranking the order means little.

By UniProt entry, the sequences of proteins in these tests, tags left out. Where a name states a change or a piece, a line headed by the entry shows the natural chain unless it says otherwise.
UniProt Q99607: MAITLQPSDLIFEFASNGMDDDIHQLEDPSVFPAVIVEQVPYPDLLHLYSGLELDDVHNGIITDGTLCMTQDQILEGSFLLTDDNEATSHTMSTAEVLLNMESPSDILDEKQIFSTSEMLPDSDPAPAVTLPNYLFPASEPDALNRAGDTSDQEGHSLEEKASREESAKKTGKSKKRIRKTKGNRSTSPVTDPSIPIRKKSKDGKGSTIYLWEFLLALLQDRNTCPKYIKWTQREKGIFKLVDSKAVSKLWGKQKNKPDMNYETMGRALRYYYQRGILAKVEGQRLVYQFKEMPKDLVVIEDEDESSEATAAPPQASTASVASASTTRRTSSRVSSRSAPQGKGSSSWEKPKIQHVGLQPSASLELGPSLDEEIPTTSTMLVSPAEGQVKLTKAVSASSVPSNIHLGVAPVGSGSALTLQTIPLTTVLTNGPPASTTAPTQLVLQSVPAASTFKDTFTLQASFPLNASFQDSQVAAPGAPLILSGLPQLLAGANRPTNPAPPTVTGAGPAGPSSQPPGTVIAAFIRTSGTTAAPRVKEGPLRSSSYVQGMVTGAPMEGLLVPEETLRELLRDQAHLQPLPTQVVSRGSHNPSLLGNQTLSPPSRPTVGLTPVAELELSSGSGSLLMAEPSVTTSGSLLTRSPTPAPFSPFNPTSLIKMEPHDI

target: ELF4 (UniProt Q99607); experiment: DAPPL (digital affinity profiling via proximity ligation, sequencing); details: 10 mM Tris-HCl pH 7.5, 50 mM NaCl, 1 mM DTT, 4% glycerol, room temperature, 30 min; GST-TFs on glutathione beads, 16-mer random dsDNA library, 0.1% …; high values mean tight binding; double strand, one strand shown; scale: fold enrichment (6-mer frequency, TF over GST control)

Row | Sequence | binding signal
1 | CGGTTT | 1.21
2 | CTGTTG | 1.17
3 | ACAAAC | 1.12
4 | CCTTGT | 1.29
5 | CATTAC | 1.1
6 | GAAAAT | 1.14
7 | CCCGGC | 1.19
8 | TCACTA | 1.12
9 | GTATGG | 1.02
10 | CCGCCG | 1.29
11 | ATTTCG | 1.29
12 | GTATCA | 1.05
13 | TAGGAA | 1.09
14 | GAACAA | 1.2
15 | CCTTTT | 1.64
16 | TTATGC | 1.31
17 | ACCCAC | 1.23
18 | CGTACC | 1.17
19 | AACGGC | 1.24
20 | TTGCTT | 1.24

Row | Sequence | binding signal
21 | ACCATC | 1.12
22 | TTCACG | 1.46
23 | CCCTAT | 1.37
24 | GAAACG | 1.14
25 | TGGCCC | 1.14
26 | CCCAAC | 1.22
27 | CAACCG | 0.995
28 | AGCATC | 1.02
29 | TCAAAC | 1.21
30 | AACTCC | 1.3
31 | CTGGAA | 1.23
32 | ACTACA | 1.16
33 | ATATAT | 1.38
34 | CCTCGC | 1.6
35 | CATCAC | 1.12
36 | ACTAAT | 1.36
37 | ACCGCT | 1.14
38 | TTCCCG | 1.73
39 | ACAGGA | 1.04
40 | TATATT | 1.32

target: T1, ETV2 (UniProt O00321); experiment: as above; details: 10 mM Tris-HCl pH 7.5, 50 mM NaCl, 1 mM DTT, 4% glycerol, room temperature, 30 min; GST-TFs on glutathione beads, 16-mer random dsDNA library, 0.1% …; high values mean tight binding; double strand, one strand shown; scale: fold enrichment (6-mer frequency, TF over GST control)
T1 sequence: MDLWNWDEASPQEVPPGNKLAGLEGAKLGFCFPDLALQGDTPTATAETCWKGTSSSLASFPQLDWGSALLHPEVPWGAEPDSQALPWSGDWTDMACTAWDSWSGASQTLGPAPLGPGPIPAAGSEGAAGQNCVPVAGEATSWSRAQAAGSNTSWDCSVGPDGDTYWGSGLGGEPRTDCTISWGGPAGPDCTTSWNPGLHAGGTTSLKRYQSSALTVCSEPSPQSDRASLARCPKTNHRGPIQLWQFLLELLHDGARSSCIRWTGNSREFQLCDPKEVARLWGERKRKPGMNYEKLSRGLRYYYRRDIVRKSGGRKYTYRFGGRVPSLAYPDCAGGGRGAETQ

Row | Sequence | binding signal
41 | CCTTGT | 1.03
42 | TCACTA | 1.18
43 | TTCACG | 1.34
44 | CAACCG | 1.08
45 | AGCATC | 0.944
46 | TCAAAC | 1.3
47 | ACTACA | 1.11
